{"source": "PubChem BioAssay AID1259308 (NCATS, 2017)", "aim": "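Knock-downs that increase output of a recombinant reporter protein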 (primary screen)", "cells": "human HEK293 embryonic kidney cells stably expressing firefly luciferase (HEK-CMV-Luc2-Hygro)", "knock-down reagent": "single siRNA against human genes, 0.8 pmol siRNA per well", "time to read-out": "72 h", "measurement": "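Reporter luminescence and viable-cell signal on separate replicate plates, given as percent of non-targeting control and median/MAD z-scores, plus per-cell luciferase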", "reading the numbers": "total luciferase, z-score and total luciferase, % of control: higher = more reporter protein produced", "active means": "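An siRNA counts as active if its total luciferase robust z-score exceeds 3; genes with two or more such siRNAs out of three were retested with fresh siRNAs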", "meaning of the calls": "active = raised luciferase; inactive = no rise", "note": "The deposit covers about 59,000 reagents; shown is a part drawn at random. Of all reagents, about 1,510 (2.6%) were called active. 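Calls use total luciferase alone and ignore viability, so some active siRNAs may act by altering cell number.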 A number with no mark means an inactive call. The numbers tell different reagents against one gene apart. Not all columns of the deposit are shown. No sequences are given here."}
{"gene": "KRT2 (keratin 2)", "reagent no.": 1, "total luciferase, z-score": -0.367, "total luciferase, % of control": 74.6}
{"gene": "KRT2 (keratin 2)", "reagent no.": 2, "total luciferase, z-score": 1.4, "total luciferase, % of control": 110}
{"gene": "KRT2 (keratin 2)", "reagent no.": 3, "total luciferase, z-score": 0.635, "total luciferase, % of control": 94.5}
{"gene": "PODNL1 (podocan like 1)", "reagent no.": 1, "total luciferase, z-score": -0.743, "total luciferase, % of control": 67.1}
{"gene": "PODNL1 (podocan like 1)", "reagent no.": 2, "total luciferase, z-score": -0.348, "total luciferase, % of control": 75}
{"gene": "PODNL1 (podocan like 1)", "reagent no.": 3, "total luciferase, z-score": -1.76, "total luciferase, % of control": 46.9}
{"gene": "ZFP2 (ZFP2 zinc finger protein)", "reagent no.": 1, "total luciferase, z-score": 0.697, "total luciferase, % of control": 95.7}
{"gene": "ZFP2 (ZFP2 zinc finger protein)", "reagent no.": 2, "total luciferase, z-score": -0.921, "total luciferase, % of control": 63.6}
{"gene": "ZFP2 (ZFP2 zinc finger protein)", "reagent no.": 3, "total luciferase, z-score": -1.21, "total luciferase, % of control": 57.8}
{"gene": "TMIGD1 (transmembrane and immunoglobulin domain containing 1)", "reagent no.": 1, "total luciferase, z-score": -0.705, "total luciferase, % of control": 67.9}
{"gene": "TMIGD1 (transmembrane and immunoglobulin domain containing 1)", "reagent no.": 2, "total luciferase, z-score": 0.868, "total luciferase, % of control": 99.2}
{"gene": "TMIGD1 (transmembrane and immunoglobulin domain containing 1)", "reagent no.": 3, "total luciferase, z-score": -0.612, "total luciferase, % of control": 69.7}
{"gene": "ZPR1 (ZPR1 zinc finger)", "reagent no.": 1, "total luciferase, z-score": -0.398, "total luciferase, % of control": 74}
{"gene": "ZPR1 (ZPR1 zinc finger)", "reagent no.": 2, "total luciferase, z-score": "4 (active)", "total luciferase, % of control": 161}
{"gene": "ZPR1 (ZPR1 zinc finger)", "reagent no.": 3, "total luciferase, z-score": 0.259, "total luciferase, % of control": 87}

4 entries already listed, arranged by “total luciferase, % of control”, highest first.
{"gene": "KRT2 (keratin 2)", "reagent no.": 2, "total luciferase, z-score": 1.4, "total luciferase, % of control": 110}
{"gene": "KRT2 (keratin 2)", "reagent no.": 3, "total luciferase, z-score": 0.635, "total luciferase, % of control": 94.5}
{"gene": "PODNL1 (podocan like 1)", "reagent no.": 2, "total luciferase, z-score": -0.348, "total luciferase, % of control": 75}
{"gene": "PODNL1 (podocan like 1)", "reagent no.": 1, "total luciferase, z-score": -0.743, "total luciferase, % of control": 67.1}

Continued.
{"gene": "CST8 (cystatin 8)", "reagent no.": 1, "total luciferase, z-score": -0.505, "total luciferase, % of control": 71.9}
{"gene": "CST8 (cystatin 8)", "reagent no.": 2, "total luciferase, z-score": -2.07, "total luciferase, % of control": 40.6}
{"gene": "CST8 (cystatin 8)", "reagent no.": 3, "total luciferase, z-score": "3.47 (active)", "total luciferase, % of control": 151}
{"gene": "RNASEH2C (ribonuclease H2 subunit C)", "reagent no.": 1, "total luciferase, z-score": 0.576, "total luciferase, % of control": 93.3}
{"gene": "RNASEH2C (ribonuclease H2 subunit C)", "reagent no.": 2, "total luciferase, z-score": -0.301, "total luciferase, % of control": 75.9}
{"gene": "RNASEH2C (ribonuclease H2 subunit C)", "reagent no.": 3, "total luciferase, z-score": -0.137, "total luciferase, % of control": 79.2}
{"gene": "KDR (kinase insert domain receptor)", "reagent no.": 1, "total luciferase, z-score": 1.58, "total luciferase, % of control": 113}
{"gene": "KDR (kinase insert domain receptor)", "reagent no.": 2, "total luciferase, z-score": 0.363, "total luciferase, % of control": 89.1}
{"gene": "KDR (kinase insert domain receptor)", "reagent no.": 3, "total luciferase, z-score": -0.147, "total luciferase, % of control": 79}
{"gene": "GINM1 (glycosylated integral membrane protein 1)", "reagent no.": 1, "total luciferase, z-score": 0.572, "total luciferase, % of control": 93.3}
{"gene": "GINM1 (glycosylated integral membrane protein 1)", "reagent no.": 2, "total luciferase, z-score": 0.0229, "total luciferase, % of control": 82.3}
{"gene": "GINM1 (glycosylated integral membrane protein 1)", "reagent no.": 3, "total luciferase, z-score": -0.406, "total luciferase, % of control": 73.8}
{"gene": "TTLL3 (tubulin tyrosine ligase like 3)", "reagent no.": 1, "total luciferase, z-score": -0.288, "total luciferase, % of control": 76.2}
{"gene": "TTLL3 (tubulin tyrosine ligase like 3)", "reagent no.": 2, "total luciferase, z-score": 0.3, "total luciferase, % of control": 87.9}
{"gene": "TTLL3 (tubulin tyrosine ligase like 3)", "reagent no.": 3, "total luciferase, z-score": 1.29, "total luciferase, % of control": 107}
{"gene": "DRICH1 (aspartate rich 1)", "reagent no.": 1, "total luciferase, z-score": -0.466, "total luciferase, % of control": 72.6}
{"gene": "DRICH1 (aspartate rich 1)", "reagent no.": 2, "total luciferase, z-score": -0.297, "total luciferase, % of control": 76}
{"gene": "DRICH1 (aspartate rich 1)", "reagent no.": 3, "total luciferase, z-score": -0.726, "total luciferase, % of control": 67.4}
